Results are given in words; binding and its absence hold for the method and conditions named. In cells and extracts the contact can be indirect. Some entries that bind do so weakly or less than the wild type.
Target: Smad3 (mouse (endogenous in GE1)) (UniProt Q8BUN5)
Test: co-IP; nuclear proteins (15 μg) of GE1 cells, untreated or treated with PgLPS (0.1 μg/mL, 12 and 24 h); precleared with normal rabbit IgG and protein A/G agarose; precipitated with anti-Smad3 or IgG in NP-40 solution (0.5% NP-40, 10 mM Tris pH 7.5, 0.5 M NaCl), 4 °C; blotted with anti-YY1 or anti-C/EBPβ

The chains behind the UniProt entries cited, without tags or fusion partners.
UniProt Q8BUN5: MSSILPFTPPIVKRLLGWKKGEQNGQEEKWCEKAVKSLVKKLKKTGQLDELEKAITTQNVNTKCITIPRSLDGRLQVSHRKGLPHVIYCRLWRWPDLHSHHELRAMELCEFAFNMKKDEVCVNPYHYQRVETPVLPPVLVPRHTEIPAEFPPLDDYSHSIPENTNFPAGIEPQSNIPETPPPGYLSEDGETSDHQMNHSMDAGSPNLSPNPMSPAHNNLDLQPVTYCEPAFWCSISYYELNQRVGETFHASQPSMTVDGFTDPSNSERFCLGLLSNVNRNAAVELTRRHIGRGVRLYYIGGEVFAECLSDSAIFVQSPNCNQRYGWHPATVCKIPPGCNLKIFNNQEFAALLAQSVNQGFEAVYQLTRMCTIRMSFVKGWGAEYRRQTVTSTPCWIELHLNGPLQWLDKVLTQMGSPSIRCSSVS
UniProt P28033: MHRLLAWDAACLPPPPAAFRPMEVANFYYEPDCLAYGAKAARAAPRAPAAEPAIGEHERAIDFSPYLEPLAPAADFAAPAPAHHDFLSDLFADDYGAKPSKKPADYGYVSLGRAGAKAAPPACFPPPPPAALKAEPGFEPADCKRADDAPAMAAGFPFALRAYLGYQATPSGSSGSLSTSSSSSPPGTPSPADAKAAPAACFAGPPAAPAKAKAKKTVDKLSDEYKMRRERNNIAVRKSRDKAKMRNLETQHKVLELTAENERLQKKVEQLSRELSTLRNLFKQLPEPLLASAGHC

In the case of “CCAAT/enhancer-binding protein β (from UniProt P28033 1-296)”, the binding is reported as “binds”.
